Article PMC7560020
No constants are given. Whether binding was seen depends on the method and setting. Binding seen in cells or lysates may run through a third protein. Some entries that bind do so weakly or less than the wild type.

Protein sequences, listed by entry. Tags and fused reporters are not part of them.
UniProt P15927: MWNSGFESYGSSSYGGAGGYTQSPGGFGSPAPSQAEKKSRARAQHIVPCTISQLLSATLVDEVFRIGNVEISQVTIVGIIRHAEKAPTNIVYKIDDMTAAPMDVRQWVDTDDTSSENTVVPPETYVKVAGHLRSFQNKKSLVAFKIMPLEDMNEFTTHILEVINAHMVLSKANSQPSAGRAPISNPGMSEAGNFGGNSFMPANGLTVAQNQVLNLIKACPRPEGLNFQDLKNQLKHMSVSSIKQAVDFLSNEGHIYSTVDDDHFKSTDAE
UniProt P27694: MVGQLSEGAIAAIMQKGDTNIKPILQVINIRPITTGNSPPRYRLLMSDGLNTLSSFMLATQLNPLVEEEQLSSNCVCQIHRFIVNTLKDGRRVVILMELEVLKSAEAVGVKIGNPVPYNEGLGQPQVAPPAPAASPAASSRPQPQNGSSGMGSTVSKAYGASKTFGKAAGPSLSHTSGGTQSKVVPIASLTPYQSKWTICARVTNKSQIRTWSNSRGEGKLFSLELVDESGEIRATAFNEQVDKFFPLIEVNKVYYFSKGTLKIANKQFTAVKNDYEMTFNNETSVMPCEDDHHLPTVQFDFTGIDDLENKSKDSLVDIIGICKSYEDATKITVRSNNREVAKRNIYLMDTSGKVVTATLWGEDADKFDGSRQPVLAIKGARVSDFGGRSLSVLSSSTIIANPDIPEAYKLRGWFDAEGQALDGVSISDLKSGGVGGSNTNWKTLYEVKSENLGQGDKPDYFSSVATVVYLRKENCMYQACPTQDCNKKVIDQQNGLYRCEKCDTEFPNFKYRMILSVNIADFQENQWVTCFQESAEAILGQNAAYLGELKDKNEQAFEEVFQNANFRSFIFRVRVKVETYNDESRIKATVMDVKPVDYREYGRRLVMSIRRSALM

Target: T1, Enhancer of mRNA decapping protein 4 (human (in human cervical cancer cell lines HeLa or SiHa)) (UniProt Q6P2E9)
T1 sequence: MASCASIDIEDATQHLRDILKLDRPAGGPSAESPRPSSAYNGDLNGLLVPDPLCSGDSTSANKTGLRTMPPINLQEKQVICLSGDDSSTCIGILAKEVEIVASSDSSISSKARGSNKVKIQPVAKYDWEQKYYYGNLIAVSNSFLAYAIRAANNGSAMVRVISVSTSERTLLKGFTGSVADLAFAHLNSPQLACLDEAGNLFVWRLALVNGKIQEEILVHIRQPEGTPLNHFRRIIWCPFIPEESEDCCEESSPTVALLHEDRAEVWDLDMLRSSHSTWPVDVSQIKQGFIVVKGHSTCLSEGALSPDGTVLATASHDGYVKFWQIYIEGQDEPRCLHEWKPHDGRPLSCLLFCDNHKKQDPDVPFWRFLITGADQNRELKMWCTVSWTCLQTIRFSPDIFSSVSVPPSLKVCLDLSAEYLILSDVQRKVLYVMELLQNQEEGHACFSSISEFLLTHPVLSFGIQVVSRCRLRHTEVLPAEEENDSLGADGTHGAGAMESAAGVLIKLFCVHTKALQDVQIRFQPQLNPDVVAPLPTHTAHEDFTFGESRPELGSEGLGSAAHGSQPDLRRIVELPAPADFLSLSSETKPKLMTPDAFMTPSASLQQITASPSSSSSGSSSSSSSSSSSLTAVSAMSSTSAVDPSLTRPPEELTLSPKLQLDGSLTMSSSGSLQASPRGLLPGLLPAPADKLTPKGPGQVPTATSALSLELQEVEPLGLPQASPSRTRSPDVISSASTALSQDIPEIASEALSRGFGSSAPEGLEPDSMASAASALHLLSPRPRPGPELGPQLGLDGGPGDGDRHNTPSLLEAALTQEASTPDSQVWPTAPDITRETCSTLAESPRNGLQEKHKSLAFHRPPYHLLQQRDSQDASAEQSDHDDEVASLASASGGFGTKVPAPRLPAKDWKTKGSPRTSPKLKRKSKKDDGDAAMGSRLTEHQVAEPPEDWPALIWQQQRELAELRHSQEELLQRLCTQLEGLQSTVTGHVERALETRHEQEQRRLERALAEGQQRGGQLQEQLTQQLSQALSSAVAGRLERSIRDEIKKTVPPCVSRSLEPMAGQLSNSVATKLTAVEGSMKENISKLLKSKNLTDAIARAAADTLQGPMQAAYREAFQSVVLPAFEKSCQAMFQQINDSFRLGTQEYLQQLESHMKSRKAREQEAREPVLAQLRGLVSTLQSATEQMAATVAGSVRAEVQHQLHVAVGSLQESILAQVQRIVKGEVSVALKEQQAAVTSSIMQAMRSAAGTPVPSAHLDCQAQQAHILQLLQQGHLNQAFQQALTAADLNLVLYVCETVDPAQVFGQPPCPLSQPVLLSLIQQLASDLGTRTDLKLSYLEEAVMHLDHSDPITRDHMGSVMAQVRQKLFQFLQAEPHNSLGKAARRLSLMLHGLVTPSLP
Experiment: co-IP; cell lysate incubated with purified antibody against target protein overnight at 4 °C, Protein G-conjugated or IgG-conjugated magnetic beads 3 h, washed with IP buffer and PBS, eluate analysed by Western blot; which protein was precipitated not given

binding	Substance
binds	Replication protein A subunit RPA2 (from UniProt P15927 1-270)
binds	Replication protein A subunit RPA1 (from UniProt P27694 1-616)
